Mtb heat-shock: 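Assay on Mycobacterium tuberculosis, filed only as a heat shock assay from Cornell; the read-out is not stated. The concentration is filed as 10 mM, unlikely as a test dose, so the dose is not known. The record gives no direction; compounds that gave an IC50 in retests scored well above the rest, so higher reads as stronger inhibition. Of about 69,000 compounds tested this way, about 930 (1.4%) reached 50% or more in at least one test.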
Mtb growth Cornell: 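Whole-cell assay for inhibitors of Mycobacterium tuberculosis growth, labelled Cornell in the record; the read-out is not stated. The concentration is filed as 10 mM, unlikely as a test dose, so the dose is not known. The record gives no direction; compounds strong in two other growth screens of this library score well above the rest, so higher reads as stronger inhibition. Of about 53,000 compounds tested this way, about 900 (1.7%) reached 50% or more in at least one test.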
LdMetRS: 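Primary screen of methionyl-tRNA synthetase; the read-out is not stated. Target: Methionyl-tRNA synthetase (putative), Leishmania donovani (UniProt E9BF75). The test concentration is not given. Values are per cent inhibition. Of about 68,000 compounds tested this way, about 24 (0.035%) reached 50% or more in at least one test.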

Protein sequences, listed by entry. Tags and fused reporters are not part of them.
UniProt E9BF75, entry or part of it: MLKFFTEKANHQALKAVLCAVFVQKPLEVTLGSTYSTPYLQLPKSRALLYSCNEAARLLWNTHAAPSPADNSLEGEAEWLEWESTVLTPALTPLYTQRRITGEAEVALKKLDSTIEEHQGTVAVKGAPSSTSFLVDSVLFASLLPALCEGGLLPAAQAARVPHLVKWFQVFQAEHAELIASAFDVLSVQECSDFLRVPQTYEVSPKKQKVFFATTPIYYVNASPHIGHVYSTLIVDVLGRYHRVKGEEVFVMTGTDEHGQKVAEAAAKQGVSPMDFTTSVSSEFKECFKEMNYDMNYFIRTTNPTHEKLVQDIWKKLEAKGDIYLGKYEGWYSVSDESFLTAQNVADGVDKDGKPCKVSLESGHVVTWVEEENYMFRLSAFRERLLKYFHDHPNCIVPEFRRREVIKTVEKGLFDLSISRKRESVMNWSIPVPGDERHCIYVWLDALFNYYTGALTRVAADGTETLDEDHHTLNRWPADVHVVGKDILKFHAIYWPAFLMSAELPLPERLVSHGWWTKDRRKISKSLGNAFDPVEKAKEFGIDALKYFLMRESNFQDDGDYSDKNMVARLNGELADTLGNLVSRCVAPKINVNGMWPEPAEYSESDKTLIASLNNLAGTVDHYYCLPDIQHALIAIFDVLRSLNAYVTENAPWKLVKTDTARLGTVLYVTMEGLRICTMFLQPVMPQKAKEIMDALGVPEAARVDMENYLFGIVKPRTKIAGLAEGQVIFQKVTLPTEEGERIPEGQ

All values are in %.
How 0% and 100% were set is not recorded. Most values in the screen are low, and negative values occur.
This is an unselected part of the compounds tested.
A dash means the value is not listed here; it may have been measured.

Compound | Mtb heat-shock | Mtb growth Cornell | LdMetRS
O=C(C1CC1)N1CC[C@H]2C(=O)N(c3ccsc3)CCO[C@H]2C1 | - | - | 3.258
CC1CCCCN1CCN(C)C(=O)c1cc(CN2CCC(O)CC2)on1 (stereo unspecified) | -3.942 | - | 3.733
Cc1nc(C)c(CNC[C@@]2(COc3cccnc3)C[C@@H](O)[C@@H](O)C2)s1 | - | - | 7.119
CN(C(=O)c1cc(Cl)c[nH]1)C1CCN(c2ccccn2)CC1 | 5.537 | - | 22.92
O=C(CO)N1CCC(F)(F)C2(CCN(c3ccccc3)C2)C1 (stereo unspecified) | - | - | 3.136
Cc1nc(C)n(CC2CCCN2Cc2cn3c(C)cccc3n2)n1 (stereo unspecified) | -6.121 | - | 12.59
CN(C)S(=O)(=O)N1CCCC(CCC(=O)Nc2ccc(Cl)cc2)C1 (stereo unspecified) | -17.23 | -18.75 | -2.431
CC(C1CC1)N(C)C(=O)c1ccc(-n2ncc(C#N)c2N)cc1 (stereo unspecified) | -6.554 | - | 17.49
Cc1cc(C(=O)N2CCC(O)(Cn3ccc4ccncc43)CC2)on1 | -8.316 | -13.59 | 6.032
O=C(C1CCCO1)N1CCCn2c(nnc2Cn2ccnc2)C1 (stereo unspecified) | - | - | 11.96
COc1ccc(-c2n[nH]c(C)c2CC(=O)NCC2CCCO2)cc1 (stereo unspecified) | -15.21 | -8.085 | 9.686
O=C1CC(c2ccsc2)c2c(n(C3CCOCC3)[nH]c2=O)N1 (stereo unspecified) | 4.528 | - | 12.86
Nc1cc(C(=O)N2CCCC(C(=O)CCc3ccccc3)C2)ccn1 (stereo unspecified) | 16.43 | -0.7989 | 10.95
CN(C)c1cc(CNC(=O)c2cccc(F)c2)ccn1 | -34.96 | - | 8.434
CCNC(=O)NC(=O)C(C)Nc1ccccc1OCCOC (stereo unspecified) | 2.987 | 4.957 | 12.24
CCCc1nnc(NCCc2noc(C3CC3)n2)o1 | 15.78 | 12.08 | 9.14
Cc1cccc(OCC2CCCN(C(=O)CCn3ccccc3=O)C2)c1 (stereo unspecified) | -28.89 | 22.99 | 18.61
CS(=O)(=O)c1snnc1C1CCN(Cc2cccnc2)CC1 | -35.44 | -31.12 | 8.475
CS(=O)(=O)c1cccc(C(=O)NCC2(c3ccccc3)CC2)c1 | -1.018 | - | 20.72
CC(=O)NCCC1CCCCN1S(=O)(=O)c1cccc(Cl)c1 (stereo unspecified) | -7.31 | -47.8 | 3.681
O=C(Cn1c(C(F)F)cc2cccnc21)NC1CCCC1 | 5.089 | -8.622 | 16.13
O=C(C1CCC1)N1C[C@@H]2CN(c3ccccc3)C(=O)[C@@H]2C1 | - | - | 7.843
CNS(=O)(=O)c1ccc(CNC(=O)c2c(C)oc(C)c2C)cc1 | -15.91 | - | 15.3
Cc1ccc(CN(C)C(=O)NCC(C)(C)NS(C)(=O)=O)s1 | -1.747 | 8.746 | 8.505
CNC(=O)[C@@H]1C[C@H](N)CN1S(=O)(=O)c1cc(Cl)cc(Cl)c1O | -4.134 | - | 15.47
CCC(CN1CCCCC1)NC(=O)C1(c2ccc(F)cc2)CC1.O=C(O)CC(O)(CC(=O)O)C(=O)O (stereo unspecified) | -8.056 | 20.93 | -
Cc1ccccc1OCCC(=O)OC(C)C(=O)Nc1sccc1C(N)=O (stereo unspecified) | 1.626 | 15.19 | 7.063
CN(C)C1(C(=O)NC2CCC(Oc3ccccc3C#N)CC2)CCC1 (stereo unspecified) | -26.46 | 4.387 | 5.412
CC1CCc2n[nH]c(C(=O)NCCCc3ccccn3)c2C1 (stereo unspecified) | 10.7 | 9.383 | 5.161
[H][C@]12CCN(Cc3cnn(C)c3)[C@@]1([H])C[C@@H](C(=O)N1CCOCC1)O2 | 6.016 | 15.34 | -
CCc1nc2n(n1)CC(NCC(=O)Nc1nccs1)CC2 (stereo unspecified) | -16.21 | -31.69 | -1.408
CCc1nc(CC(=O)N2CCC(C(=O)N3CCCC3)CC2)cs1 | 5.666 | - | 11.42
CNc1ncc(CN2CCCC2c2[nH]ncc2C(=O)N(C)C)cn1 (stereo unspecified) | 11.61 | -11.06 | 13.65
C[C@@H]1CN(c2ccc(Cl)cn2)CC[C@@]1(O)C1CCOCC1 | 12.77 | 19.43 | 22.22
Cc1nn(C)c2cn(CC(=O)N3CCc4ccccc4C3)nc12 | 4.054 | 9.752 | 11.05
O=C(Nc1cnc(N2CCOCC2)nc1)c1ccc(C(F)(F)F)cc1 | 16.99 | 5.685 | 6.832
COCCNc1cccc(C2CCCN2)n1 (stereo unspecified) | -11.24 | 16.47 | 14.19
CC(=O)N(CCc1nc(-c2cc(C(N)=O)oc2C)cs1)C(C)C | -0.8186 | -32.59 | 8.247
Cc1ccnc(NC(=O)c2ccc(Br)o2)c1 | -3.08 | 22.61 | 5.167
COc1ccc(Cc2ncc3c(n2)CN(C(=O)C2COCCO2)C3)cc1 (stereo unspecified) | 19.7 | - | 14.93
Cc1noc(C(C)C)c1C(=O)NCCCN1CCNCC1.Cl | 0.9177 | - | -
CSCC(=O)N1CCC(Oc2cccc(C)c2)CC1 | 10.57 | 11.36 | 8.933
Cc1ccc(C(=O)NCCNc2ncccc2C#N)c(=O)[nH]1 | 8.765 | -9.876 | 1.742
CC(C)=CCn1ncc(N2CCCCC2)cc1=O | 1.734 | 12.13 | 10.43
CCN(CC)CC(=O)N1CCN(CCCc2ccncc2)CC1 | 2.569 | 16.7 | 0.3597
COc1cccc(COCC(=O)N2CCCC(n3cccn3)C2)c1 (stereo unspecified) | 29.85 | -2.934 | 5.842
COc1cccc([C@H]2CN(C(=O)c3nnc4n3CCCC4)C[C@@H]2N)c1 | -20.38 | 0.3747 | 5.025
Cc1cc(C)c(CNC(=O)NCC2CCCOC2)c(=O)[nH]1 (stereo unspecified) | -3.775 | - | 18.95
CN(Cc1ccc2nsnc2c1)C(=O)CCc1cc2n(n1)CCCNC2 | 18.45 | 23.28 | 4.194
O=C(CCOc1ccccc1F)N1CCCCC1Cn1cccn1 (stereo unspecified) | -21.42 | -2.585 | 13.13
Cc1nc(C)n(CC2CN(Cc3ccncc3)Cc3nccn3C2)n1 (stereo unspecified) | - | - | -0.3436
O=C1N[C@H]2OCCC[C@H]2[C@H](c2ccccc2)N1 | - | - | 14.71
[H][C@]12CCN(C(=O)C3CCC3)CC[C@@]1([H])S(=O)(=O)N(Cc1cccnc1)C2 | 16.49 | -8.828 | -
Cn1cc(-c2cnc(N3CCOCC3)nc2)cc1C(=O)NCCC#N.O=C(O)C(F)(F)F | 4.581 | 25.55 | -

The values are deposited in ChEMBL (CHEMBL3988442, “University of Dundee, Small-Polar-MMV Screening Library” (2021)).